Data as given in PubChem BioAssay AID493246 (Drosophila RNAi Screening Center, 2011)
The deposit covers about 21,000 reagents; below is an unselected part of those that have a named target and a result. In the full data, 429 (2%) are marked active. 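Values are raw and not normalised between plates; calls rest on per-plate z-scores that were not deposited.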 Unmarked entries are inactive. Not stated in the record: the amount of reagent, the time to read-out.

- Aim: 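Genes fly cells need to grow and stay alive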 (primary screen)
- Cells: Drosophila Kc and S2R+ cells
- Reagents: long dsRNA against Drosophila genes
- Read-out: 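Raw, unnormalised count of remaining cells in each well; per-plate z-scores of cell number underlie the calls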
- Scale: Kc cell number and S2R+ cell number: higher = more cells remaining
- Active means: 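Active when the per-plate z-score of cell number is 3 or more in the direction of fewer cells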

gene	amplicon	Kc cell number, rep 1	Kc cell number, rep 2	S2R+ cell number, rep 1	S2R+ cell number, rep 2
CG14440	DRSC17933	1.33e6	1.36e6	7.85e5	8.64e5
CG6041	DRSC18396	1.52e6	1.48e6	1.03e6	1.16e6
CG12091	DRSC08251	1.53e6	1.35e6	1.00e6	1.25e6
CG43999	DRSC14605	1.55e6	1.63e6	9.71e5	1.12e6
CG13622	DRSC14624	1.66e6	1.68e6	1.03e6	1.16e6
CG15097	DRSC06526	1.24e6	1.35e6	1.01e6	8.89e5
CG11964	DRSC14447	1.44e6	1.55e6	1.24e6	1.27e6
CG34447	DRSC00741	1.50e6	1.61e6	1.04e6	1.20e6
Sol1	DRSC15263	1.45e6	1.38e6	1.25e6	1.28e6
Sol1	DRSC15271	1.40e6	1.42e6	1.24e6	1.34e6
Sol1	DRSC15681	1.38e6	1.44e6	1.31e6	1.38e6
e (ebony)	DRSC16936	1.56e6	1.69e6	1.30e6	1.39e6
RecQ4 (RecQ4 helicase)	DRSC11265	1.68e6	1.68e6	1.03e6	1.08e6
CG31546	DRSC12317	1.43e6	1.51e6	1.19e6	1.29e6
CG12655	DRSC20678	1.45e6	1.46e6	1.03e6	1.04e6
Pen (Pendulin)	DRSC03396	1.28e6	1.36e6	1.25e6	1.26e6
Mmp1 (Matrix metalloproteinase 1)	DRSC04493	1.74e6	1.79e6	1.27e6	1.42e6
CG1172	DRSC12182	1.59e6	1.73e6	1.32e6	1.52e6
CG3546	DRSC18308	1.40e6	1.34e6	8.92e5	9.90e5
Or22a (Odorant receptor 22a)	DRSC00764	1.65e6	1.68e6	1.14e6	1.29e6
Sry-beta (Serendipity beta)	DRSC16868	4.97e5		8.37e5	
Or42a (Odorant receptor 42a)	DRSC04912	1.50e6	1.49e6	1.33e6	1.29e6
CG10000	DRSC14170	1.48e6	1.50e6	1.05e6	1.13e6
CG14054	DRSC17909	1.48e6	1.51e6	1.08e6	1.17e6
CG8079	DRSC07070	1.38e6	1.49e6	1.00e6	1.03e6
CG8079	DRSC07071	1.56e6	1.58e6	1.24e6	1.36e6
CG12641 (retired record)	DRSC17848	1.58e6	1.56e6	7.78e5	8.70e5
ghi (ghiberti)	DRSC08985	1.71e6	1.89e6	1.23e6	1.37e6
CG11626	DRSC14336	1.35e6	1.53e6	1.05e6	1.09e6
CG14659	DRSC12245	1.82e6	2.26e6	1.28e6	1.42e6
Gfat1 (Glutamine:fructose-6-phosphate aminotransferase 1)	DRSC21219	1.71e6	1.77e6	1.12e6	1.27e6
TyrR (Tyramine receptor)	DRSC16242	1.14e6	1.19e6	8.44e5	9.93e5
CG14570	DRSC11731	1.38e6	1.42e6	1.30e6	1.47e6
CG10165	DRSC02017	1.30e6	1.39e6	1.31e6	1.36e6
gcm2	DRSC03538	1.46e6	1.49e6	1.20e6	1.31e6
COX3 (retired record)	DRSC21279	1.57e6	1.59e6	1.19e6	1.29e6
CG11248	DRSC11644	1.53e6	1.58e6	1.18e6	1.27e6
CG8353	DRSC03084	1.44e6	1.58e6	1.06e6	1.26e6
Pgam5-2 (Phosphoglycerate mutase 5-2)	DRSC04278	1.47e6	1.54e6	1.31e6	1.33e6
Spn75F (Serpin 75F)	DRSC09589	1.47e6	1.50e6	1.09e6	1.26e6
CG32391	DRSC08865	1.62e6	1.92e6	1.24e6	1.34e6
egh (egghead)	DRSC18771	1.52e6	1.56e6	1.06e6	1.18e6
PolA2 (DNA polymerase alpha subunit 2)	DRSC16641	1.59e6	1.65e6	1.09e6	1.15e6
Or24a (Odorant receptor 24a)	DRSC00768	1.60e6	1.62e6	1.06e6	1.28e6
cher (cheerio)	DRSC16924	1.47e6	1.57e6	1.16e6	1.26e6
CG31343	DRSC15887	1.44e6	1.47e6	1.11e6	1.18e6
CG8818	DRSC07275	1.32e6	1.42e6	9.56e5	1.03e6
Bug22 (Basal body up regulated gene 22)	DRSC02842	1.49e6	1.57e6	1.28e6	1.41e6
CG5377	DRSC15783	1.33e6	1.34e6	1.09e6	1.18e6
vilya	DRSC18588	1.41e6	1.40e6	9.64e5	1.07e6
CG5199	DRSC11770	1.67e6	1.87e6	1.49e6	1.53e6
CG30156	DRSC04959	1.42e6	1.53e6	9.80e5	1.11e6
Set	DRSC16861	1.68e6	1.77e6	1.39e6	1.49e6
Ugt37E1 (UDP-glycosyltransferase family 37 member E1)	DRSC02248	1.56e6	1.66e6	1.20e6	1.29e6
Vsp37A (Vacuolar protein sorting 37A)	DRSC18794	1.55e6	1.47e6	1.06e6	1.08e6
CG33234	DRSC07994	1.65e6	1.80e6	9.96e5	1.18e6
wcd (wicked)	DRSC07051	1.39e6	1.39e6	1.17e6	1.27e6
CG16815	DRSC02521	1.63e6	1.68e6	1.38e6	1.52e6
Cpr50Ca (Cuticular protein 50Ca)	DRSC05454	1.52e6	1.52e6	1.02e6	1.19e6
Cpr50Ca (Cuticular protein 50Ca)	DRSC06372	1.64e6	1.63e6	1.20e6	1.39e6
Cpr50Ca (Cuticular protein 50Ca)	DRSC06375	1.60e6	1.59e6	1.23e6	1.35e6

No new results follow: 7 of the entries above.
gene	amplicon	Kc cell number, rep 1	Kc cell number, rep 2	S2R+ cell number, rep 1	S2R+ cell number, rep 2
CG8818	DRSC07275	1.32e6	1.42e6	9.56e5	1.03e6
Bug22 (Basal body up regulated gene 22)	DRSC02842	1.49e6	1.57e6	1.28e6	1.41e6
CG5377	DRSC15783	1.33e6	1.34e6	1.09e6	1.18e6
vilya	DRSC18588	1.41e6	1.40e6	9.64e5	1.07e6
CG5199	DRSC11770	1.67e6	1.87e6	1.49e6	1.53e6
CG30156	DRSC04959	1.42e6	1.53e6	9.80e5	1.11e6
Set	DRSC16861	1.68e6	1.77e6	1.39e6	1.49e6
